Some of the results follow.
Key:
Assay in all cases: log2 fold change, soluble protein after heating vs DMSO (PISA); higher = thermal stabilisation; K562 lysate, 10 uM; active = over 0.2 and 3.5 SD of the protein, either way, in both replicates (recomputed)
[1] = compound: NCC(=O)Nc1ccc(-n2nc(C(F)(F)F)cc2-c2ccc3c(ccc4ccccc43)c2)cc1
Procedure, shortened: (§1)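 A 30 min treatment with 10 μM compound was applied to crude K562 extract at 1 mg/mL protein in PBS pH 7.4 with 1 mM MgCl2. Heating for 3 min spanned 48°C-58°C, after which aliquots were pooled, adjusted to 0.5% NP-40 at 4°C and spun at 21,000xg for 90 min. TMTpro 16plex LC-MS/MS of the supernatant, with channel sums equalised, gave values recorded as log-two fold change in thermal stability against solvent controls, from duplicates.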

Protein sequences, listed by entry. Tags and fused reporters are not part of them. Lines headed by an entry give the natural chain unless they say otherwise; changes in a name come on top.
UniProt Q8TEP8: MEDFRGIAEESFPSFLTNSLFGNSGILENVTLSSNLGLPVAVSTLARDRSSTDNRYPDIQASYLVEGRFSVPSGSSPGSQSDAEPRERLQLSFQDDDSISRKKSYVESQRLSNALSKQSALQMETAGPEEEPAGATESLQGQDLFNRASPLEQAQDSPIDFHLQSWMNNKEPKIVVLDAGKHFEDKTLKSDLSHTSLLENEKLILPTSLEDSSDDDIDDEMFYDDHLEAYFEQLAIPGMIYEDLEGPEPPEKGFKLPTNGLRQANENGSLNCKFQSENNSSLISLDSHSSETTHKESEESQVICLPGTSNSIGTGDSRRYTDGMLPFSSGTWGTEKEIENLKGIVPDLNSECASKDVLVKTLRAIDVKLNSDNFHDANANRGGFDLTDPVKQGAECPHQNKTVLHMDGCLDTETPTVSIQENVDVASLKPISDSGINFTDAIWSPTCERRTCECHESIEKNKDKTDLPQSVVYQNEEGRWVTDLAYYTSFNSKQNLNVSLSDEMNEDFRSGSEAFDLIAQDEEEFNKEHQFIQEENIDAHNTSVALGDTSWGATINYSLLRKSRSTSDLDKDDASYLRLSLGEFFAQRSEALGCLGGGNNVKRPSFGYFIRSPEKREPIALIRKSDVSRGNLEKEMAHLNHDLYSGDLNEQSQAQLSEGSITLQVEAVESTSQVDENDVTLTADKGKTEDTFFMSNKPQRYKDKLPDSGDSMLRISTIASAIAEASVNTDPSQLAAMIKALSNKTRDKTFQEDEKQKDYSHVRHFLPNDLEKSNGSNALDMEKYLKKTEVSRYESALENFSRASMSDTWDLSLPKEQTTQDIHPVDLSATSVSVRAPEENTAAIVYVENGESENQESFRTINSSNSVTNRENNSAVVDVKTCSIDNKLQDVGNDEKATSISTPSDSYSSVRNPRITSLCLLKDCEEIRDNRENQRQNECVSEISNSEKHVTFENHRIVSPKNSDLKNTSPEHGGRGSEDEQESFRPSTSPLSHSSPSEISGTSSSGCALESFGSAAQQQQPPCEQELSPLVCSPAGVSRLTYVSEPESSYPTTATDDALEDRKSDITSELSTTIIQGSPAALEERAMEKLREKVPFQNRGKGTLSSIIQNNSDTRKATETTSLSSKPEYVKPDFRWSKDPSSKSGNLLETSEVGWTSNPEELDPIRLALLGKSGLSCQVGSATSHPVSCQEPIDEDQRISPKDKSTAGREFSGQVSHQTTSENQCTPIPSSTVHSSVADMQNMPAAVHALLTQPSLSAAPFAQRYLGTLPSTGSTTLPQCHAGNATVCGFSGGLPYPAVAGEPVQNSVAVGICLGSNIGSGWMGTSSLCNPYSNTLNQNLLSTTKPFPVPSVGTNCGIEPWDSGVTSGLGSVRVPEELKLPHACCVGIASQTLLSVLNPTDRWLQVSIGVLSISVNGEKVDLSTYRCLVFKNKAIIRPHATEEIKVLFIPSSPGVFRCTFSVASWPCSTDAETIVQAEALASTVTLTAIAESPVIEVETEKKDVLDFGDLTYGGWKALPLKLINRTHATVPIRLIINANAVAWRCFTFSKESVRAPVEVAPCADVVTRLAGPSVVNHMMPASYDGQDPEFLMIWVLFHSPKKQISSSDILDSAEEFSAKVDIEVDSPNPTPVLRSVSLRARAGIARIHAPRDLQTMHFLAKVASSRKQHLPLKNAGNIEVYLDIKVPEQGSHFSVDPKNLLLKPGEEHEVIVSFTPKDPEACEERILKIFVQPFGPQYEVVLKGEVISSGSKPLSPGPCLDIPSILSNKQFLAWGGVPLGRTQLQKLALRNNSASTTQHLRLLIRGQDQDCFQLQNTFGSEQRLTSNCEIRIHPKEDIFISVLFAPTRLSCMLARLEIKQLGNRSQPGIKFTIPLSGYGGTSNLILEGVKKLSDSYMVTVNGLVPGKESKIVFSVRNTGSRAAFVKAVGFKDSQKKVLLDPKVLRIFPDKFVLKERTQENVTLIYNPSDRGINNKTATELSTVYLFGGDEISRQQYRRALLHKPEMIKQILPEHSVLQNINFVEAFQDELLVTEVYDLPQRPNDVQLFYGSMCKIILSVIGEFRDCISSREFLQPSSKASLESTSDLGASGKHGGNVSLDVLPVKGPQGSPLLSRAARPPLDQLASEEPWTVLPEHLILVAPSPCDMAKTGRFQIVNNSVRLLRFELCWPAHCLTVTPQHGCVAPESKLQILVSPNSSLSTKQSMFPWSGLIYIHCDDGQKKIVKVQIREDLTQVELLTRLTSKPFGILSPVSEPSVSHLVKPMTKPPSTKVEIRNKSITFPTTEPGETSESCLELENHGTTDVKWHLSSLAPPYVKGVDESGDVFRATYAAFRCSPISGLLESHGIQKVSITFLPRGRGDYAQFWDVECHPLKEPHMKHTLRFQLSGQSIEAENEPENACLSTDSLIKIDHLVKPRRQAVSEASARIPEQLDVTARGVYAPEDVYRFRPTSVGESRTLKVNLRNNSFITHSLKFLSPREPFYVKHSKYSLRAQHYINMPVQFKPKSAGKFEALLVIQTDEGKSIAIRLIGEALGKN
UniProt Q9H3R5: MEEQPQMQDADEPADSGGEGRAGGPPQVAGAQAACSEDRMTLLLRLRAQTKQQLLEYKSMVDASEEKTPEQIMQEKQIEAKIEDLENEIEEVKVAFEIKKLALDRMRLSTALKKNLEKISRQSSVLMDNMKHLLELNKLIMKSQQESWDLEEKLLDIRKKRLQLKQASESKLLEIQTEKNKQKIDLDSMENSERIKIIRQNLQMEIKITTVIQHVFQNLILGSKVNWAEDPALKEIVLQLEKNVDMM
UniProt Q5VT06: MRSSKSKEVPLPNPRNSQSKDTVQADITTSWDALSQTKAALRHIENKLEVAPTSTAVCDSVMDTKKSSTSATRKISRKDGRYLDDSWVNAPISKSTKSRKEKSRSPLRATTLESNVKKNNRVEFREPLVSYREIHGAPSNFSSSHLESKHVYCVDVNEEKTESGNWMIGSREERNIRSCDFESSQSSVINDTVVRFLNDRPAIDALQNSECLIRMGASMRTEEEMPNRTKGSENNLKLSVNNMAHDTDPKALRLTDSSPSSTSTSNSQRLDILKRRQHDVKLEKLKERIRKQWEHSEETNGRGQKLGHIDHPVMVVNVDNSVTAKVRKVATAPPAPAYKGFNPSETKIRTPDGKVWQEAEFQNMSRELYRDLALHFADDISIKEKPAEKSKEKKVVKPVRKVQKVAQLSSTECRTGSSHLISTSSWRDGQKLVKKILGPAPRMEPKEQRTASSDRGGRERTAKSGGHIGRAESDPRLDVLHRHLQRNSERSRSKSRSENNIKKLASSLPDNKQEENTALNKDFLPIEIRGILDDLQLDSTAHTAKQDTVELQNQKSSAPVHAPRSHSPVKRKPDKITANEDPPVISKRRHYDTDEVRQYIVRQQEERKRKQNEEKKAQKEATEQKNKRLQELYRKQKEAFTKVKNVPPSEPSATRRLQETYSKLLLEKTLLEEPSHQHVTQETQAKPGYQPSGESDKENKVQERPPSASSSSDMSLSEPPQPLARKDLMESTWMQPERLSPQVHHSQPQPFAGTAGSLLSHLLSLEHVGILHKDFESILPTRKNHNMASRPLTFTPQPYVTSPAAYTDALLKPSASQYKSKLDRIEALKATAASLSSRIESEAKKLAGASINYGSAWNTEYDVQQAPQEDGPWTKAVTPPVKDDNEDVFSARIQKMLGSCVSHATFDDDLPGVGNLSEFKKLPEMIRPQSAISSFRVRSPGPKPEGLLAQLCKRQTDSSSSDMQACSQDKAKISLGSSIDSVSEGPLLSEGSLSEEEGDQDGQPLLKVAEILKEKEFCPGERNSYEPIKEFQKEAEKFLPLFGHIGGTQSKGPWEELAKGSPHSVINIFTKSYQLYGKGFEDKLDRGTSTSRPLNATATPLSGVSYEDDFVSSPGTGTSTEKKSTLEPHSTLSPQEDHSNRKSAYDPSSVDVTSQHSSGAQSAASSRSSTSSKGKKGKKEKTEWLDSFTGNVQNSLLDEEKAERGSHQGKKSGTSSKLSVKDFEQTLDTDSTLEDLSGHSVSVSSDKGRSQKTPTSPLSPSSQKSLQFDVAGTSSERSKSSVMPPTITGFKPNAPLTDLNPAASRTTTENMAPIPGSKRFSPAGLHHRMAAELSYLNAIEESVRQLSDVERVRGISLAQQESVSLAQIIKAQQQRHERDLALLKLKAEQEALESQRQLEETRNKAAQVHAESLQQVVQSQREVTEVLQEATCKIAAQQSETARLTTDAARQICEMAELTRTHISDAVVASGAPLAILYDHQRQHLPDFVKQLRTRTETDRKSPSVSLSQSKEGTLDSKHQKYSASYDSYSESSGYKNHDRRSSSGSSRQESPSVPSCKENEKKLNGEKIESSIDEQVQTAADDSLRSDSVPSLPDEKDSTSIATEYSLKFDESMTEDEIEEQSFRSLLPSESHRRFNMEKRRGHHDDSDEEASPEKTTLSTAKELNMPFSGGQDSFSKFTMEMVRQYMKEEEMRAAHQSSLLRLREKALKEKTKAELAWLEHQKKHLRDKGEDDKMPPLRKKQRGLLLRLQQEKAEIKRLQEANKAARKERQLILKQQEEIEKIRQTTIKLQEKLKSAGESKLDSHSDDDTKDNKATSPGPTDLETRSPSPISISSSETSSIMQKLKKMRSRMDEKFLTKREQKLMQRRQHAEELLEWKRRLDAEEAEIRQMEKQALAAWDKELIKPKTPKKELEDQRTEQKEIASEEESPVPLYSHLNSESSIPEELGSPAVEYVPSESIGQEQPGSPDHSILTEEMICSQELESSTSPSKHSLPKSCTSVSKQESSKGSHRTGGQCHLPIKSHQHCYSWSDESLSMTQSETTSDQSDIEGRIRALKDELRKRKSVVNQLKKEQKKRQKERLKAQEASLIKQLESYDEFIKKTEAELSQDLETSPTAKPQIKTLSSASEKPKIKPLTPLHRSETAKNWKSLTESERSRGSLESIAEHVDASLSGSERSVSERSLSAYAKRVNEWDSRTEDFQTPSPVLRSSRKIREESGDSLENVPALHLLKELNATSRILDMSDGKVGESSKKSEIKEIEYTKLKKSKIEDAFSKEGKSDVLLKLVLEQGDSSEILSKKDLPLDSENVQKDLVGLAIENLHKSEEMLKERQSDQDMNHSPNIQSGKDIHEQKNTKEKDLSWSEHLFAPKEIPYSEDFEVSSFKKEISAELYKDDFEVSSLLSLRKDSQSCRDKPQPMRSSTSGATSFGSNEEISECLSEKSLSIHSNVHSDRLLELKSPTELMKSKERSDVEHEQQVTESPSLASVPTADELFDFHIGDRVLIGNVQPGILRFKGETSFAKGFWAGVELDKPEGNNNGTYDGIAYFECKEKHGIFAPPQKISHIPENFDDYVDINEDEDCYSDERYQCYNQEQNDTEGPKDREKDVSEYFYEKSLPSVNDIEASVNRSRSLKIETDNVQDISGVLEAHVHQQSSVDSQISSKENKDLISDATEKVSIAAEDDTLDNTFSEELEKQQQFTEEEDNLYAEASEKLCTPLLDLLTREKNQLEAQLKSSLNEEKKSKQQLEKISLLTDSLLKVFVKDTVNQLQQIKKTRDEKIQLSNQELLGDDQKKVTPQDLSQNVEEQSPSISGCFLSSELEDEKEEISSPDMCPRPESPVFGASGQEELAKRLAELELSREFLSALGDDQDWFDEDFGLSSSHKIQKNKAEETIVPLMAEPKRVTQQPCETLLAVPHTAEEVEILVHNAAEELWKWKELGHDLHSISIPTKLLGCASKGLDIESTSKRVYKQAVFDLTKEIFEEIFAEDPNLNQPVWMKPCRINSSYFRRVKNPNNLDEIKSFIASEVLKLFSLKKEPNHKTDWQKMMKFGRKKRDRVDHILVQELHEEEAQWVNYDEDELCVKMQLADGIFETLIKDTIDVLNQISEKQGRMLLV
UniProt P42773: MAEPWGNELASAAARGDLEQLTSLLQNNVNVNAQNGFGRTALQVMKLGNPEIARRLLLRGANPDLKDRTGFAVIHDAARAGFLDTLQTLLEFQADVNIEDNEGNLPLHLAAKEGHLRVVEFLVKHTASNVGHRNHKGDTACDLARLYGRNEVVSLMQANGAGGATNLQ
UniProt Q6ZMG9: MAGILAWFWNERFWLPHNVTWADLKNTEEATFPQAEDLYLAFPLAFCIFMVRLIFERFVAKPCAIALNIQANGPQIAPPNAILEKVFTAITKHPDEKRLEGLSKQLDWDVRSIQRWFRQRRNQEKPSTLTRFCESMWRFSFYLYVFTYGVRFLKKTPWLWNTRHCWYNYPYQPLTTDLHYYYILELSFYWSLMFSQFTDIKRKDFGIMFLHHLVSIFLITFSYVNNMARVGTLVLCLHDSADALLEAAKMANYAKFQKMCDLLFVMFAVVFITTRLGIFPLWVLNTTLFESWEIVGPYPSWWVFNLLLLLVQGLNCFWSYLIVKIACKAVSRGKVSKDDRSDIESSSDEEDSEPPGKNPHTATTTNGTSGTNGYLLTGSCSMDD

vorinostat = compound: O=C(CCCCCCC(=O)Nc1ccccc1)NO [vorinostat]
Procedure, shortened: as §1

silmitasertib = compound: O=C(O)c1ccc2c(c1)nc(Nc1cccc(Cl)c1)c1ccncc12 [silmitasertib]
Procedure, shortened: as §1

[2] = compound: O=C1NC(=O)C(c2cnc3ccccn23)=C1c1cn2c3c(cc(F)cc13)CN(C(=O)N1CCCCC1)CC2
Procedure, shortened: as §1

entospletinib = compound: c1cn2cc(-c3ccc4cn[nH]c4c3)nc(Nc3ccc(N4CCOCC4)cc3)c2n1 [entospletinib]
Procedure, shortened: as §1

CDK16 isoform 2 (UniProt Q00536)
log2 fold change [1]: inactive: 0.006
log2 fold change (vorinostat): inactive: 0.055
log2 fold change (silmitasertib): active: 0.446
log2 fold change [2]: active: 0.603
log2 fold change (entospletinib): inactive: -0.05

CEP135 (UniProt Q66GS9)
log2 fold change [1]: inactive: -0.029
log2 fold change (vorinostat): inactive: -0.059
log2 fold change (silmitasertib): inactive: -0.023
log2 fold change [2]: inactive: 0.049
log2 fold change (entospletinib): inactive: -0.039

CEP192 (UniProt Q8TEP8)
log2 fold change [1]: inactive: 0.034
log2 fold change (vorinostat): inactive: -0.128
log2 fold change (silmitasertib): inactive: 0.058
log2 fold change [2]: inactive: -0.019
log2 fold change (entospletinib): inactive: 0.051

CENPH (UniProt Q9H3R5)
log2 fold change [1]: inactive: -0.045
log2 fold change (vorinostat): inactive: 0.01
log2 fold change (silmitasertib): inactive: 0.007
log2 fold change [2]: inactive: -0.034
log2 fold change (entospletinib): inactive: 0.003

CEP350 (UniProt Q5VT06)
log2 fold change [1]: inactive: 0.02
log2 fold change (vorinostat): inactive: 0.219
log2 fold change (silmitasertib): inactive: 0
log2 fold change [2]: inactive: -0.053
log2 fold change (entospletinib): inactive: -0.032

CEP290 (UniProt O15078)
log2 fold change [1]: inactive: -0.085
log2 fold change (vorinostat): inactive: -0.021
log2 fold change (silmitasertib): inactive: 0.118
log2 fold change [2]: inactive: -0.007
log2 fold change (entospletinib): inactive: -0.08

CDK19 (UniProt Q9BWU1)
log2 fold change [1]: inactive: 0.154
log2 fold change (vorinostat): inactive: -0.084
log2 fold change (silmitasertib): inactive: 0.187
log2 fold change [2]: inactive: -0.038
log2 fold change (entospletinib): inactive: 0.147

CDKN2C (UniProt P42773)
log2 fold change [1]: inactive: -0.062
log2 fold change (vorinostat): inactive: 0.119
log2 fold change (silmitasertib): inactive: 0.01
log2 fold change [2]: inactive: 0.045
log2 fold change (entospletinib): inactive: -0.113

CERS6 isoform 2 (UniProt Q6ZMG9)
log2 fold change [1]: inactive: -0.018
log2 fold change (vorinostat): inactive: -0.192
log2 fold change (silmitasertib): inactive: -0.127
log2 fold change [2]: inactive: -0.008
log2 fold change (entospletinib): inactive: 0.037

From the supplement of paper PMC10849652
